Measured values published in patent publication US20040214755 (published 2004).

Assay: general procedure: Fmoc solid-phase peptide synthesis; 2-chlorotrityl chloride (Cl-TrtCl) polystyrene resin; HATU/DIEA; DIPCDI/HOBt; DIPCDI/DMAP for ester bonds; PyBOP/DIEA for cyclisation
Settings: for crude HPLC purity / crude yield: whole synthesis; for crude HPLC purity: analytical RP-HPLC, UV detection at 220 nm; for crude yield: cleavage yield; for cyclisation yield: cyclisation step

In the case of “5-MeHex-D-Val-Thr(tBu)-Val-D-Val-D-Pro-Orn(Boc)-D-allo-Ile-D-allo-Thr(Val-Z-Dhb-Phe-H)-D-allo-Ile-D-Val-OH”, the “crude HPLC purity” value (run 1) is reported as over 70%, the “crude HPLC purity” value (run 2) is reported as over 80% and the crude yield (run 1) is reported as 87%. It also gave a crude yield (run 2) of 65%.

In the case of “5-MeHex-Tyr-D-Ser(Gly-H)-Phe-D-Leu-Pro-Thr-OH”, the “crude HPLC purity” value is reported as over 85% and the crude yield is reported as 89%.

Work on “Kahalalide B [5-MeHex-Tyr-cyclo(D-Ser-Phe-D-Leu-Pro-Thr-Gly)]” yielded a cyclisation yield (on unprotected linear peptide) of 22%.

Substance “5-MeHex-D-Val-Thr-D-Val-Val-D-Pro-Orn-D-allo-Ile-cyclo(D-allo-Thr-D-allo-Ile-D-Val-Phe-ZDhb-Val)” has a cyclisation yield (overall in cyclization, deprotection and purification steps, run 1) of 13%, a cyclisation yield (overall in cyclization, deprotection and purification steps, run 2) of 10% and a crude yield (run 1) of 83%. It also gave a crude yield (run 2) of 78%.
